# According to PubChem BioAssay AID540275 (National Center for Advancing Translational Sciences (NCATS), 2011):
# Chains of the proteins cited; added tags and fusions are not shown.
# UniProt Q8NER1, whole entry, looked up: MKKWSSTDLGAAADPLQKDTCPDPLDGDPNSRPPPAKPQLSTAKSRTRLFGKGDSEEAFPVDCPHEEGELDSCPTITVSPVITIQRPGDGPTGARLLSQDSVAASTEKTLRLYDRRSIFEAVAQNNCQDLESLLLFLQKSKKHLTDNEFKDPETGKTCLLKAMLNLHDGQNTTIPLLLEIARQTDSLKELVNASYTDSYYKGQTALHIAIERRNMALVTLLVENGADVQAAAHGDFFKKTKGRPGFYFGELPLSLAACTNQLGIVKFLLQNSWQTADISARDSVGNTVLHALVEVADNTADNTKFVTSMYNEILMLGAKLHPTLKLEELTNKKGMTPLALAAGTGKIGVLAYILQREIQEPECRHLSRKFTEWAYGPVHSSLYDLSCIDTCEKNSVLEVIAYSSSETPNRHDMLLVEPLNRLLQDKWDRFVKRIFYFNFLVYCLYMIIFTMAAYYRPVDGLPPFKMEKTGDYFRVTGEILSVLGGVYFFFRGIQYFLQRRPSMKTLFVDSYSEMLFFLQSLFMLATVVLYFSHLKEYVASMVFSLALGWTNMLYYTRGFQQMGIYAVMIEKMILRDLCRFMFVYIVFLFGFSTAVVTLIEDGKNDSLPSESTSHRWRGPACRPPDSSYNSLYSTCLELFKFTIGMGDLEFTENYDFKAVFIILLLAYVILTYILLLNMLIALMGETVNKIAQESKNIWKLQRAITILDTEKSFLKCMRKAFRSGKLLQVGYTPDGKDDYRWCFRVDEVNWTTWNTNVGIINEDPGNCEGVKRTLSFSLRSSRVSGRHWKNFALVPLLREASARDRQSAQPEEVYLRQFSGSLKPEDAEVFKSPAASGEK
# Among all 320,000 compounds or so, about 620 (0.19%) were called active. This list was built around the results that the source calls inconclusive (neither active nor inactive); the mix of calls is not that of the screen. Cut-off read from the data, not from the text of the source: active = activation above about 80%; inconclusive = between about 30% and that limit; inactive = weaker than that.
# Biological target: Transient receptor potential cation channel subfamily V member 1 (Homo sapiens) (UniProt Q8NER1)
# Experiment: HTS Assay for Compounds that Act as Agonists of the Vanilloid Receptor 1; note: 0% is about no effect
# Settings: TRPV1-expressing cells, Fluo-8 calcium influx, agonist mode; at 8.33 µM, hits give high values
# How it was run: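 Cells expressing TRPV1 were dye-loaded with Fluo-8 and read kinetically: 10 s baseline, 3 min after compound (agonist portion), then 2 min after EC20 capsaicin (allosteric enhancer portion). Calcium-bound dye fluorescence at 480/520 nm.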
row,SMILES,activation
1,CCOc1ccc(-c2nnc(-c3ccco3)o2)cc1,inconclusive: 31.3%
2,CCCCC(=O)Nc1ccccc1C(=O)N1CCOCC1,inactive: -2.82%
3,NC(=O)c1ccsc1NC(=O)CN1C(=O)NC2(CCCCC2)C1=O,inactive: 1.33%
4,COc1ccc(OCc2nc3ccccc3[nH]2)cc1,inconclusive: 53.4%
5,COc1ccccc1NC(=O)C1CCCN(c2cnccn2)C1 (stereo not drawn),inactive: -0.0129%
6,O=C(Nc1cccnc1)c1cc(-c2ccc(F)cc2)on1,inconclusive: 30.3%
7,COc1ccc(N(CC(=O)Nc2cccnc2)S(=O)(=O)c2ccc(C)cc2)cc1Cl,inconclusive: 48.2%
8,CCNC(=O)c1ccc2c(c1)C1C3CCC(C3)C1C(c1ccccc1)N2 (stereo not drawn),inconclusive: 66.3%
9,COc1ccc2[nH]c3c(=O)n(CCCC(=O)NC4CCC(C)CC4)c(=S)[nH]c3c2c1 (stereo not drawn),inactive: 0.777%
10,CC(C)(C)[C@H]1CCC(=O)N([C@H](CSc2ccc(Br)cc2)Cc2ccccc2)CC1,inconclusive: 32.4%
11,O=C(NC(=S)NC1CCCCC1)c1ccc(F)cc1,inconclusive: 52.1%
12,COc1ccc(C)cc1N(CC(=O)N1CCCCCC1)S(=O)(=O)c1ccc(C)cc1,inconclusive: 31.4%
13,Cc1ccc(NC(=O)C(C)SCc2ccccc2)cc1 (stereo not drawn),inconclusive: 67.8%
14,Cc1ccc(CCNC(=O)C2CCCN(S(=O)(=O)N3CC(C)CC(C)C3)C2)cc1 (stereo not drawn),inconclusive: 38.9%
15,CSCCC(NS(=O)(=O)c1ccc(Br)cc1)C(=O)OCC(=O)NC1CC1 (stereo not drawn),inactive: -1.18%
16,CC(C)C(=O)N1CCC2(CC1)Oc1ccc(F)cc1C(=O)C21CC(c2ccccc2)=NO1 (stereo not drawn),inconclusive: 40.8%
17,COCCN(C(=S)Nc1ccccc1C)C(C)c1cccnc1 (stereo not drawn),inactive: 1.53%
18,O=C(Nc1ccc(Cl)c(Cl)c1)Nc1ccc(N2CCCC2)c(S(=O)(=O)Nc2ccccc2Cl)c1,inactive: -3.43%
19,O=C(NCCCCc1ccccc1)Nc1ccc(F)cc1,inconclusive: 79.4%
20,O=C(CC(c1ccccc1)c1ccccc1)NCCOCc1ccccc1,inconclusive: 38.2%
21,O=C(COc1cc(Cl)c(Cl)cc1Cl)Nc1cccc(O)c1,inconclusive: 61.1%
22,CC(C)OC(=O)Cn1c(-c2ccccc2)c(-c2ccccc2)nnc1=O,inconclusive: 52%
23,CCOC(=O)CC(NC(=O)C(CC)c1ccccc1)c1ccccc1Cl (stereo not drawn),inactive: 7.15%
24,CC(=O)Nc1c(F)cc(Br)cc1F,inactive: 2.77%

row,SMILES,activation
1,Cc1ccc(C(=O)/C=C/C(=O)O)cc1,inactive: -1.93%
2,COCc1cccc(C2=CC(=O)C[C@H](c3ccc(OC)cc3)C2)c1,inconclusive: 45.8%
3,CN1C(=O)/C(=C\c2ccc(N(C)C)cc2)OC1=S,inconclusive: 71.7%
4,COc1ccccc1N(C(=O)c1snc(C(N)=O)c1N)C(C(=O)NCCC(C)C)c1ccco1 (stereo not drawn),inconclusive: 34%
5,CCCc1ccc(OCCNC(=O)c2ccco2)cc1,inconclusive: 50.6%
6,O=c1cc(N2CCCC2)c2ccccc2o1,inactive: 3.8%
7,CCOC(=O)C1(Cc2cccc(OC)c2)CCN(Cc2cccc(OCC)c2O)CC1,inconclusive: 46.2%
8,COc1ccccc1CNS(=O)(=O)c1ccc2c(c1)NC(=O)CS2,inconclusive: 37.8%
9,Cc1cccc(NC(=O)c2cc3ccccc3o2)c1,inconclusive: 70%
10,c1ccc(-c2noc(-c3cccnc3)n2)cc1,inactive: 3.91%
11,CC(C)C[C@@H](CSc1ccccc1)N1CCN(CC(C)C)CCC1=O,inconclusive: 44.5%
12,COc1ccc(CCCc2nc3ccccc3[nH]2)cc1,inconclusive: 57.4%
13,O=C(COC(=O)C1CCC(N2C(=O)C3C4CCC(C4)C3C2=O)CC1)c1ccc(F)cc1 (stereo not drawn),inactive: 23.5%
14,Cc1cc(C)n(CC(O)Cn2c(C)c(C)c3ccccc32)n1 (stereo not drawn),inactive: 3.47%
15,FC(F)(F)c1ccc2c(c1)[nH]c(=S)n2C1CC1,inactive: -4.17%
16,O=C(Cc1cccs1)Nc1ccccc1-c1nc2ccccc2[nH]1,inconclusive: 69.1%
17,O=C(CCN1C(=O)/C(=C/c2ccccc2Cl)SC1=S)Nc1cccnc1,inconclusive: 59.6%
18,Cc1ccc(C(=O)Nc2cccc(Oc3ccccc3)c2)o1,inconclusive: 71.2%
19,CC(C)C(=O)NC(=S)Nc1ccccc1N1CCN(C(=O)c2ccccc2)CC1,inconclusive: 36.9%
20,O=C(NCc1cccnc1)c1ccc(COc2ccccc2Br)o1,inconclusive: 73.1%
21,CCOc1ccc2nc(SC3CC(=O)N(c4ccc(C)cc4)C3=O)sc2c1 (stereo not drawn),inactive: -3.03%
22,Cc1ccc(NC(=O)c2c(NC(=O)Cc3ccccc3)sc3c2CCCC3)cc1,inconclusive: 37.5%
23,CN(C)c1nc(Cl)nc(N(C#N)CCOc2ccccc2)n1,inactive: 10.9%
24,CCOC(=O)c1cccc2c1-c1ccccc1/C2=N/O,inactive: 2.49%

row,SMILES,activation
1,NC(=O)c1c(NC(=O)CN2CCOCC2)sc2c1CCC2,inactive: -1.23%
2,CCOC(=O)c1c(C)c(C(=O)Nc2ccccc2)c(C)n1CC,inconclusive: 34.5%
3,Cn1nccc1C(=O)NC1CC(C)(C)Cc2c1cnn2-c1ccc(F)cc1 (stereo not drawn),inconclusive: 52.6%
4,Cc1ccc(-c2nn(-c3ccccc3)cc2CNCc2ccccc2)cc1,inactive: 20.6%
5,CC(=O)c1ccc(N=c2scc(C)n2C(C)C)cc1,inconclusive: 34.3%
6,CCCCCCC1CCC(C(=O)N2CCOCC2)CC1 (stereo not drawn),active: 88.8%
7,COc1ccccc1C(=O)Nc1ccc(Cc2ccncc2)cc1,inconclusive: 51.9%
8,CCC[C@@H]1CCCC/C=C\CCCC(=O)OCCN1C(=O)OC(C)(C)C,inconclusive: 40.9%
9,Cc1cccc(C(=O)NC(=S)N(C)C2CCCCC2)c1,inconclusive: 48.4%
10,O=C(NCCCN1CCOCC1)NC12CC3CC(CC(C3)C1)C2,inactive: 3.65%
11,Cc1cccn2c(=O)c3cc(C(=O)NC4CCS(=O)(=O)C4)n(Cc4ccccc4)c3nc12 (stereo not drawn),inconclusive: 66.3%
12,Cn1c(=O)c2c(nc(OCc3ccc4c(c3)OCO4)n2Cc2ccccc2Cl)n(C)c1=O,inactive: 0.199%
13,Cc1ccccc1C(=O)OCCCN=C1NS(=O)(=O)c2ccccc21,inconclusive: 65.6%
14,O=C(NCc1cccc(Cl)c1)C1CCCN(c2ncnc3c2nc2n3CCCCC2)C1 (stereo not drawn),inconclusive: 46.4%
15,COC(=O)c1c(N)sc(Cc2ccccc2)c1C,inactive: 0.423%
16,COc1cccc(-c2csc(N3CCN(C(=O)Nc4ccc(Cl)cc4)CC3)n2)c1,inconclusive: 42.1%
17,Cc1cc(C)c(C)c(S(=O)(=O)ON2C(=O)c3ccccc3C2=O)c1C,inactive: 3.38%
18,Cc1cc(C)cc(OCC(=O)Nc2ccncc2)c1,inconclusive: 43.1%
19,CC1=C(C(=O)OC(C)C)C(c2cccs2)NC(=O)N1 (stereo not drawn),inactive: -0.873%
20,COc1ccccc1N(C1=NCCCS1)S(=O)(=O)c1ccc(C(C)(C)C)cc1,inconclusive: 47.5%
21,COCCNc1cc(C)nc2cc(-c3ccc(C)cc3)nn12,inconclusive: 36.9%
22,CCOc1ccc(S(=O)(=O)N2CCOCC2)cc1NC(=O)Cc1c(F)cccc1Cl,inconclusive: 37.7%
23,COC1=C/C(=C/c2c(N)n3nc(-c4ccc(C)cc4)sc3nc2=O)C=CC1=O,inactive: 3.22%
24,O=C(Cc1ccccc1[N+](=O)[O-])NC1CC2CCC1C2 (stereo not drawn),inconclusive: 32.5%

row,SMILES,activation
1,CCC(C)c1ccc(NC(=O)c2ccco2)cc1 (stereo not drawn),active: 82.2%
2,CCc1ccc(OCc2cccc(C(=O)N/N=C\c3cnn(C)c3C)c2)cc1,inactive: 7.82%
3,CCOC(=O)C1CCN(C(=O)COc2cccc3ccccc23)CC1,inconclusive: 39.4%
4,CCOCCCNC(=S)N(Cc1ccccc1)Cc1nc2ccccc2c(=O)[nH]1,inconclusive: 31.5%
5,Cn1c(=O)c2[nH]c(N3CCCCC3)nc2n(C)c1=O,inactive: -1.38%
6,COc1ccc(/C=C(\C#N)C(=O)Nc2ccc3[nH]c(=O)[nH]c3c2)cc1,inconclusive: 43.7%
7,C/C(CC(=O)Nc1ccc([N+](=O)[O-])cc1)=N\NC(=O)c1ccccc1O,inconclusive: 49%
8,Cc1cccc(OCCCC(=O)Nc2ccc(N3CCCCC3)cc2)c1,inconclusive: 31.8%
9,NC(=O)c1ccc(CSc2nc3ccccc3s2)cc1,inconclusive: 48.4%
10,O=C(NCc1cccnc1)C1CCN(S(=O)(=O)c2cc(Cl)ccc2Cl)CC1,inconclusive: 45.5%
11,CC1=NNC(=O)c2ccccc2O1,inactive: 2.11%
12,CCOC(=O)C1=C(N)N2C(=O)C(C)SC2=C(C(=O)OCC)C1c1cc(OC)c(OC)c(OC)c1 (stereo not drawn),inconclusive: 53.2%
13,O=C(/C=C/c1ccc2ccccc2n1)N1CCN(S(=O)(=O)c2ccccc2F)CC1,inactive: 8.11%
14,CSc1ccccc1OCc1cc(C(=O)NCc2cccc(C)n2)no1,inconclusive: 40%
15,O=C(Nc1ccc2c(c1)C(=O)N(CC1CCCO1)C2=O)c1cccc(Br)c1 (stereo not drawn),inconclusive: 39.2%
16,Cc1c(C)n(CC(O)CN2CCN(C)CC2)c2ccccc12 (stereo not drawn),inactive: 0.347%
17,Cc1cc(C)n2c(Nc3ccc4c(c3)OCCO4)c(-c3ccc(C)o3)nc2n1,inconclusive: 42%
18,CCCCN(C)C(=O)c1nc2ccccn2c1CN1CCC[C@H]1C(=O)OC,inconclusive: 49%
19,Cc1nc(NC(=O)CSc2nc3ccccc3s2)sc1C(=O)N(C)C,inactive: -0.325%
20,O=C(Nc1nccs1)c1ccc2c(c1)C(=O)N(Cc1cccnc1)C2=O,inconclusive: 33.6%
21,CCCCn1nc(C(=O)N(C)C2CCCCC2)c2ccccc2c1=O,inconclusive: 59.2%

# Reprinted from the entries so far (five entries):
row,SMILES,activation
10,CC(C)(C)[C@H]1CCC(=O)N([C@H](CSc2ccc(Br)cc2)Cc2ccccc2)CC1,inconclusive: 32.4%
11,O=C(NC(=S)NC1CCCCC1)c1ccc(F)cc1,inconclusive: 52.1%
12,COc1ccc(C)cc1N(CC(=O)N1CCCCCC1)S(=O)(=O)c1ccc(C)cc1,inconclusive: 31.4%
13,Cc1ccc(NC(=O)C(C)SCc2ccccc2)cc1 (stereo not drawn),inconclusive: 67.8%
14,Cc1ccc(CCNC(=O)C2CCCN(S(=O)(=O)N3CC(C)CC(C)C3)C2)cc1 (stereo not drawn),inconclusive: 38.9%
